# Results: publication doi:10.1101/2024.08.01.24310552
# These are yes or no findings as the source states them, for the method shown. Binding seen in cells or lysates may run through a third protein. Binding calls can cover weak binding; strength is not graded here. Sequences can lack the tags named with a protein.
# B1: FLAG-tagged NXF2 (wildtype) (protein, UniProt Q9GZY0 1-626)
# chain: MCSTLKKCGTYRTEVAECHDHGSTFQGRKKGGSSFRDNFDKRSCHYEHGGYERPPSHCQENDGSVEMRDVHKDQQLRHTPYSIRCERRMKWHSEDEIRITTWRNRKPPERKMSQNTQDGYTRNWFKVTIPYGIKYDKAWLMNSIQSHCSDRFTPVDFHYVRNRACFFVQDASAASALKDVSYKIYDDENQKICIFVNHSTAPYSVKNKLKPGQMEMLKLTMNKRYNVSQQALDLQNLRFDPDLMGRDIDIILNRRNCMAATLKIIERNFPELLSLNLCNNKLYQLDGLSDITEKAPKVKTLNLSKNKLESAWELGKVKGLKLEELWLEGNPLCSTFSDQSAYVSAIRDCFPKLLRLDGRELSAPVIVDIDSSETMKPCKENFTGSETLKHLVLQFLQQYYSIYDSGDRQGLLGAYHDEACFSLAIPFDPKDSAPSSLCKYFEDSRNMKTLKDPYLKGELLRRTKRDIVDSLSALPKTQHDLSSILVDVWCQTERMLCFSVNGVFKEVEGQSQGSVLAFTRTFIATPGSSSSLCIVNDELFVRDASPQETQSAFSIPVSTLSSSSEPSLSQEQQEMVQAFSAQSGMKLEWSQKCLQDNEWNYTRAGQAFTMLQTEGKIPAEAFKQIS
# B2: FLAG-tagged NXF3 (wildtype) (protein, UniProt Q9H4D5-1 1-531)
# chain: MSLPSGHTTGHTDQVVQRRARCWDIYQRRFSSRSEPVNPGMHSSSHQQQDGDAAMHGAHMDSPVRYTPYTISPYNRKGSFRKQDQTHVNMEREQKPPERRMEGNMPDGTLGSWFKITVPFGIKYNEKWLLNLIQNECSVPFVPVEFHYENMHASFFVENASIAYALKNVSGKIWDEDNEKISIFVNPAGIPHFVHRELKSEKVEQIKLAMNQQCDVSQEALDIQRLPFYPDMVNRDTKMASNPRKCMAASLDVHEENIPTVMSAGEMDKWKGIEPGEKCADRSPVCTTFSDTSSNINSILELFPKLLCLDGQQSPRATLCGTEAHKRLPTCKGSFFGSEMLKNLVLQFLQQYYLIYDSGDRQGLLSAYHDEACFSLSIPFNPEDSAPSSFCKFFKDSRNIKILKDPYLRGELLKHTKLDIVDSLSALPKTQHDLSSFLVDMWYQTEWMLCFSVNGVFKEVEGQSQGSVLAFTRTFIATPGSSSSLCIVNDKLFVRDTSHQGTQSALFTLVPTAFSSSVPAFSQEQQKMLPS
# B3: NXF3 stop-gain variant c.826G>T p.(Gly276*), truncated protein (domain or fragment, UniProt Q9H4D5-1 1-275)
# chain: MSLPSGHTTGHTDQVVQRRARCWDIYQRRFSSRSEPVNPGMHSSSHQQQDGDAAMHGAHMDSPVRYTPYTISPYNRKGSFRKQDQTHVNMEREQKPPERRMEGNMPDGTLGSWFKITVPFGIKYNEKWLLNLIQNECSVPFVPVEFHYENMHASFFVENASIAYALKNVSGKIWDEDNEKISIFVNPAGIPHFVHRELKSEKVEQIKLAMNQQCDVSQEALDIQRLPFYPDMVNRDTKMASNPRKCMAASLDVHEENIPTVMSAGEMDKWKGIEP
# Tests used:
# [1] = molecular target: C-terminally truncated NXT2, lacking the last six amino acids (human); assay: co-IP
# [2] = molecular target: HA-tagged NXT2 (wildtype, long isoform NM_018698.5) (human); assay: co-IP
Binder,binding [1],binding [2]
B1,binds,binds
B2,binds,binds
B3,,no binding
